# Measurements from patent US11981957B2, “Methodology to identify biomarkers relevant to neurons in the brain by using non-invasive nasal biopsy” (The Johns Hopkins University, priority 2017, dated 2024).
# At least one structure is not confirmed: it was looked up by name or label, or the drawing left a doubt.
# Tested on: GSK3β
# Experiment: GSK3β gene expression in olfactory neurons from bipolar disorder patients, lithium treatment, related to mood symptoms
# Type: in vivo, human
smiles,measurement,setting,value
[Li] [lithium],GSK3β expression in olfactory neurons,BP cells following 6 weeks of lithium treatment vs baseline (FIG. 5A),reduced
same,"reduction of gene expression levels (GSK3β, CRMP1) in BP cells vs mood symptoms","following 6 weeks of lithium treatment (FIGS. 5C, 5D; Tables 1, 2)",associated with reduction in depressive and manic symptoms
